Literature values in patent publication US10793550B2, “4-piperidin-n-(pyrimidin-4-yl)chroman-7-sulfonamide derivatives as sodium channel inhibitors” (GENENTECH, INC., priority 2017, dated 2020).

Details: administered topically (Lidoderm patch); NDA 20-612; cited from earlier work

## CCN(CC)CC(=O)Nc1c(C)cccc1C [lidocaine]
  plasma concentrations: about 1 μM
